Test results from patent US20230181673A1, “TRI-PEPTIDES AND TREATMENT OF METABOLIC, CARDIOVASCULAR AND INFLAMMATORY DISORDERS” (Diapin Therapeutics, LLC, priority 2018, published 2023).

System: liver transcriptome
Assay type: in vivo, mice
Details: NASH-diet; leucine 0.17 or glycine 0.33 mg/g/day
Method: Library preparation and sequencing were performed by the U-M DNA Sequencing Core on a NovaSeq 6000 Sequencing System (Illumina). RNA-sequencing and pathway analyses were performed as described.
Total RNA from mouse liver samples was extracted as described above. Library preparation and sequencing were performed by the University of Michigan DNA Sequencing Core. RNA was assessed for quality using the TapeStation (Agilent, Santa Clara, Calif.). […] Final libraries were checked for quality and quantity by TapeStation (Agilent) and qPCR using Kapa's library quantification kit for Illumina Sequencing platforms (Kapa Biosystems, KK4835). […]
The quality of the raw Fastq files was checked through FastQC v0.11.8 (https://www.bioinformaties.babraham.ac.uk/projects/fastqc/). Trimmomatic v.0.35 was used to trim the low-quality reads with the parameters: SLIDINGWINDOW:4:20 MINLEN:25.12 The resulted high-quality reads were then mapped to the mouse reference genome (GRCm38.90) using HISAT2 v.2.1.0.13 Gene level quantification was performed using HTSeq-counts v0.6.0 based on the GRCm38.90 genome annotations.14 The R package DESeq2 was then used to identify significant differentially expressed genes. […] 16 The significance of the enrichment was determined by right-tailed Fisher's exact test followed by Benjamini-Hochberg multiple testing adjustment. […]

SMILES	Number of DEG compared to CD (volcano plot) [DEG]
NCC(=O)O [glycine, reference compound]	1300
CC(C)C[C@H](N)C(=O)O [leucine]	3145
